{
  "source": "patent US20070078083A1",
  "about": "“MODULATION OF NEUORGENESIS BY HDac INHIBITION” (BrainCells, Inc., priority 2005, published 2007)",
  "origin": "cited, not measured here",
  "conditions": "cited from earlier work",
  "note": "At least one read-out could not be matched to a standard name with certainty.",
  "data": [
    {"smiles": "N[C@@]1(C(=O)O)CO[C@H]2[C@H](C(=O)O)[C@H]21", "note": "[LY379268, (−)-2-Oxa-4-aminobicyclohexane-4,6-dicarboxylic acid]", "values": [
      {"measurement": "permeability across the blood-brain barrier", "value": "readily permeable"}
    ]},
    {"smiles": "N[C@](CC1c2ccccc2Oc2ccccc21)(C(=O)O)[C@H]1C[C@@H]1C(=O)O", "note": "[LY341495, (2S)-2-amino-2-(1S,2S-2-carboxycycloprop-1-yl)-3-(xanth-9-yl) propanoic acid]", "values": [
      {"measurement": "permeability across the blood-brain barrier", "value": "readily permeably"}
    ]}
  ]
}
